Data published in patent US20150366949A1.
No constants are given. Whether binding was seen depends on the method and setting. Some binding calls cover weakened binding; strength is not graded here.

Sequences of proteins named here, by UniProt entry; tags and fusion partners are left off. Residues count along the entry.
UniProt Q6P9K8, residues 476-609: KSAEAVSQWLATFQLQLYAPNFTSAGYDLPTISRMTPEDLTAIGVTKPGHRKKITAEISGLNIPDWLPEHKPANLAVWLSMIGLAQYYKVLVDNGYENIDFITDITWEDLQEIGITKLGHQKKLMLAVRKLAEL
UniProt Q8VHK1, residues 488-621: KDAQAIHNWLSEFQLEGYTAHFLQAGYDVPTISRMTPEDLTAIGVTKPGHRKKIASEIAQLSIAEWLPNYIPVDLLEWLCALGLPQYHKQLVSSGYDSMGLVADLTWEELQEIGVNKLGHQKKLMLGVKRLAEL

Assays:
mLAR (mouse) = target: T1, mLAR (mouse) (UniProt A2A8L5); experiment: yeast two hybrid interaction system
T1 sequence (looked up): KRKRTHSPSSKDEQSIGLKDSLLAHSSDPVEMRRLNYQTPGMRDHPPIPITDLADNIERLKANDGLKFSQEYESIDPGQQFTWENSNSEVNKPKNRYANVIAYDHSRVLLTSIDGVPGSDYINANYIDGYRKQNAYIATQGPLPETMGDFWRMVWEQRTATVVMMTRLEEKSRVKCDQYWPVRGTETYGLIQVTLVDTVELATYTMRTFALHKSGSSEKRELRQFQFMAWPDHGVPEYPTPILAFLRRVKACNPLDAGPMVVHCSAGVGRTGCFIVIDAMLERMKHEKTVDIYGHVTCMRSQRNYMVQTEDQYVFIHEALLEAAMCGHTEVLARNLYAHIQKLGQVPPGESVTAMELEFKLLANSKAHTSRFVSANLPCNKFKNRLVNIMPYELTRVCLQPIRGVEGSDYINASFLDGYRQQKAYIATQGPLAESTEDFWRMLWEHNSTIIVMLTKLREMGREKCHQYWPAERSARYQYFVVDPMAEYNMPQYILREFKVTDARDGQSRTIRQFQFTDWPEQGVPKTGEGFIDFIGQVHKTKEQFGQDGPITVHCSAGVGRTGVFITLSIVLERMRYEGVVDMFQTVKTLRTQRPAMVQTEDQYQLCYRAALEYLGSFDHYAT

mPTPσ (mouse) = target: T2, mPTPσ (mouse) (UniProt B0V2N1); experiment: yeast two hybrid interaction system
T2 sequence (looked up): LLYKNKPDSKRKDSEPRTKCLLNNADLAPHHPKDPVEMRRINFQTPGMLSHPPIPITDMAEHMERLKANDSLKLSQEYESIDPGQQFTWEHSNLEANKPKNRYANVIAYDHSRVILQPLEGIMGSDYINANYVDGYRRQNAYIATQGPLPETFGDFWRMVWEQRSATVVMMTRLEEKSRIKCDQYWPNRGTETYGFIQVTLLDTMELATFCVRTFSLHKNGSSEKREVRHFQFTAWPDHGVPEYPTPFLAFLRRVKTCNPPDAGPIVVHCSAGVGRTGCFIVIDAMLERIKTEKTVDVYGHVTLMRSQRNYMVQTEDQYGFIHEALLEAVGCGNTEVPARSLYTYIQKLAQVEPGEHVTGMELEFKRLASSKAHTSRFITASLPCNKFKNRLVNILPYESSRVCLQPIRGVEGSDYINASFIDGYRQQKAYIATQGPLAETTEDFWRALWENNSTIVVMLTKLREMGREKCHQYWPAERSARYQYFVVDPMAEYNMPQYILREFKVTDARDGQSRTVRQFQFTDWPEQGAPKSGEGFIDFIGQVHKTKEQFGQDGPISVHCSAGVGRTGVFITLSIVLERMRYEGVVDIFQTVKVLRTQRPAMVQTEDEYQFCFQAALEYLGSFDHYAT

Substance: mCkn1 (from UniProt Q6P9K8 476-609)
- binding (mLAR (mouse)): binds

Substance: mCkn2 (from UniProt Q8VHK1 488-621)
- binding (mPTPσ (mouse)): binds
- binding (mLAR (mouse)): binds
